Results from paper PMC9157009, “Protein proximity networks and functional evaluation of the casein kinase 1 gamma family reveal unique roles for CK1γ3 in WNT signaling” (The Journal of Biological Chemistry, 2022).

The chains behind the UniProt entries cited, without tags or fusion partners. Residues count along the entry.
UniProt Q9HCP0: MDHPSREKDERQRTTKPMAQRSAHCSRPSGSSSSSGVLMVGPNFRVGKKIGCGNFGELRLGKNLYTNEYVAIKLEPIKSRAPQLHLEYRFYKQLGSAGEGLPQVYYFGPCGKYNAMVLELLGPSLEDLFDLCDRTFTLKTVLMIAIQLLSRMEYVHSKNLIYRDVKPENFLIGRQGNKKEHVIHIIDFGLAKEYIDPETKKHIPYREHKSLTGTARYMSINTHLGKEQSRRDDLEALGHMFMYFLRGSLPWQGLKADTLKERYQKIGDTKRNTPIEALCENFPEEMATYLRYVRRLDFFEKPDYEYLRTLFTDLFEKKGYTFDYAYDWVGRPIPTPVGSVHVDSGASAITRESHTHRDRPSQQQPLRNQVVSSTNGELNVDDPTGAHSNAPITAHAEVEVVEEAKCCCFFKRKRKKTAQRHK
UniProt P78368: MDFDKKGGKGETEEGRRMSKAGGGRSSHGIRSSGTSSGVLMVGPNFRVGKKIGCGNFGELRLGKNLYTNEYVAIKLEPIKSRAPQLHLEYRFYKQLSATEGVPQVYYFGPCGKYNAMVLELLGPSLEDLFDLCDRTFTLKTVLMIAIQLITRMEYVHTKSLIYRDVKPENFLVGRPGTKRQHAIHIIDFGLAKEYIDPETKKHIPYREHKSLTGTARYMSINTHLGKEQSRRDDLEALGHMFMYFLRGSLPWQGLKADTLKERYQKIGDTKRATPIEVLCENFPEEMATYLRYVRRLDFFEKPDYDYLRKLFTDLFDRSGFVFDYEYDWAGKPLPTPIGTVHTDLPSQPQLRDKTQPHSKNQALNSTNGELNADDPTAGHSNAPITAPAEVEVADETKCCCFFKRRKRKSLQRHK
UniProt Q9Y6M4: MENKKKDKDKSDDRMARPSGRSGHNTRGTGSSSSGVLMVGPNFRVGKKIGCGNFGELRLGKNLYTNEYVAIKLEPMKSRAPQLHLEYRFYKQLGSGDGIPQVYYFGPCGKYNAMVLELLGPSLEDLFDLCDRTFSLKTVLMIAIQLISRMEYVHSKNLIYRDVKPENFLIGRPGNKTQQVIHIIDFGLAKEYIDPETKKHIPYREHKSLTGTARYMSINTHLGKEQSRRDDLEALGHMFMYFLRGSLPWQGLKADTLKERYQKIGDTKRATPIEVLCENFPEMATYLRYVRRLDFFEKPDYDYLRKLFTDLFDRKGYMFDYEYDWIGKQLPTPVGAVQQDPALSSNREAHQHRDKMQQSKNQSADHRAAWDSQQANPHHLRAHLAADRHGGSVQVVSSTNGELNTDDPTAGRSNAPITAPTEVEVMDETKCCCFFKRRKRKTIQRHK
UniProt P35222: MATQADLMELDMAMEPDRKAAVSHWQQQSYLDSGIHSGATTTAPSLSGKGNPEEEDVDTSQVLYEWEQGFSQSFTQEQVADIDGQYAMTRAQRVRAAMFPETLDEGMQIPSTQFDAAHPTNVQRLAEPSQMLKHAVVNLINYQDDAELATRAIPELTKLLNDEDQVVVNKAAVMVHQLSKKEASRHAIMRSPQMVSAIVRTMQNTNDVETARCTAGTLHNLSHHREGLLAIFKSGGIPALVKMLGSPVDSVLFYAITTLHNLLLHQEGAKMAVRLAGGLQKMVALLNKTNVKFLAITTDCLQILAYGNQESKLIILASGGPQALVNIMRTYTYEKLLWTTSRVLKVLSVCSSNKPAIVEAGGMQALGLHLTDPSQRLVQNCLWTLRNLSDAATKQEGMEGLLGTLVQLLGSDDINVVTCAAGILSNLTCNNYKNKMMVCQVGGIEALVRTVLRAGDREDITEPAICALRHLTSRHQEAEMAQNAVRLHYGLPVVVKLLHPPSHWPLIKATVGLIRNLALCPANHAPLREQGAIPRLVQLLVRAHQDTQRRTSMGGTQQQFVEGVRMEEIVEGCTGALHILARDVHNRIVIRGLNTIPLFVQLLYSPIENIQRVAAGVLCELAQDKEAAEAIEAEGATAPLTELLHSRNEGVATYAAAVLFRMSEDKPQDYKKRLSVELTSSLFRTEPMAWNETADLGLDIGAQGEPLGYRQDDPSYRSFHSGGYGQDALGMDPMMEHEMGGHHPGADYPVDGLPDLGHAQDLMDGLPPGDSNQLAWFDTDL
UniProt O14641: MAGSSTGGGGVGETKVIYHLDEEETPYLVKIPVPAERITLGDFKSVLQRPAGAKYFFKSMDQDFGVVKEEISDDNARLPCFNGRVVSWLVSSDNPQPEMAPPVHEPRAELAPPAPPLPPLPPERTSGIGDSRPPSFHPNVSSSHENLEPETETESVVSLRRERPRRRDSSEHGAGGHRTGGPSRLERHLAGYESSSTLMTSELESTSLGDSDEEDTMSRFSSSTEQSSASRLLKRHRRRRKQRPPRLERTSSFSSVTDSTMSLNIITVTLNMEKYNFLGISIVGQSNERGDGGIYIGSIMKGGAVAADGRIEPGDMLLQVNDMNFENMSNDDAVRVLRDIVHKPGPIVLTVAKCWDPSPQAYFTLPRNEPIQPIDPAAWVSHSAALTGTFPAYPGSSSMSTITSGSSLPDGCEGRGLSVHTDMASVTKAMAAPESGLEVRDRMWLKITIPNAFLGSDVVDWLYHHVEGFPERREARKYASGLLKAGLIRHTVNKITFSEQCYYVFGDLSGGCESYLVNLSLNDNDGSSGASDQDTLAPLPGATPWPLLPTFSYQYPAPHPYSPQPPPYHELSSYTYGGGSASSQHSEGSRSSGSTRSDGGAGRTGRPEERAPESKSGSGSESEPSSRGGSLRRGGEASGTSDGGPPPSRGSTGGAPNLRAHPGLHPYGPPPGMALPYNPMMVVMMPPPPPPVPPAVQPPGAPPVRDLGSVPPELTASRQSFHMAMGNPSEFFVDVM
UniProt O15169: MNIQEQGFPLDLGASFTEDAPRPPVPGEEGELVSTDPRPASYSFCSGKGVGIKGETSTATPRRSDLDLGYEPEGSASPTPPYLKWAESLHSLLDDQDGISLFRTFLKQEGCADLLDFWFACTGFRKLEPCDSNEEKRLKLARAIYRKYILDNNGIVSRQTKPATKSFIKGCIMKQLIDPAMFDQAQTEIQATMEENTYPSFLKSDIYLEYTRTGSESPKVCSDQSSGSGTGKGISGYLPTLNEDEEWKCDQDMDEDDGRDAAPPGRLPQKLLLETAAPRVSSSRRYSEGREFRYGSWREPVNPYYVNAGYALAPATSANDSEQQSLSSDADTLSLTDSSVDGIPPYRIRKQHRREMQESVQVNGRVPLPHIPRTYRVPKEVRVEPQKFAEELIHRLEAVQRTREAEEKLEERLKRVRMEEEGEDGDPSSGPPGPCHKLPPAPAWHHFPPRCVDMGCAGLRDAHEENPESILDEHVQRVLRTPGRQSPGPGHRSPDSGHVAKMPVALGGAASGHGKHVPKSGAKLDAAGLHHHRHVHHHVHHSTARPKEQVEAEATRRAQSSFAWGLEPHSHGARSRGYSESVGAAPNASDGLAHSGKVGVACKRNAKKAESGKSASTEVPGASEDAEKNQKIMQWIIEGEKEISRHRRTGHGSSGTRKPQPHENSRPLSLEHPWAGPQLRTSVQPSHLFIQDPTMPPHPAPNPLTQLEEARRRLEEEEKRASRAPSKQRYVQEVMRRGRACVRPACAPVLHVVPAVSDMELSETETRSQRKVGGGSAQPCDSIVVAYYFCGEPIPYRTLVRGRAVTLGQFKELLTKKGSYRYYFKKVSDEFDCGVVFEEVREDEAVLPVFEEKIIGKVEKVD
UniProt Q9HCU4, residues 32-2923: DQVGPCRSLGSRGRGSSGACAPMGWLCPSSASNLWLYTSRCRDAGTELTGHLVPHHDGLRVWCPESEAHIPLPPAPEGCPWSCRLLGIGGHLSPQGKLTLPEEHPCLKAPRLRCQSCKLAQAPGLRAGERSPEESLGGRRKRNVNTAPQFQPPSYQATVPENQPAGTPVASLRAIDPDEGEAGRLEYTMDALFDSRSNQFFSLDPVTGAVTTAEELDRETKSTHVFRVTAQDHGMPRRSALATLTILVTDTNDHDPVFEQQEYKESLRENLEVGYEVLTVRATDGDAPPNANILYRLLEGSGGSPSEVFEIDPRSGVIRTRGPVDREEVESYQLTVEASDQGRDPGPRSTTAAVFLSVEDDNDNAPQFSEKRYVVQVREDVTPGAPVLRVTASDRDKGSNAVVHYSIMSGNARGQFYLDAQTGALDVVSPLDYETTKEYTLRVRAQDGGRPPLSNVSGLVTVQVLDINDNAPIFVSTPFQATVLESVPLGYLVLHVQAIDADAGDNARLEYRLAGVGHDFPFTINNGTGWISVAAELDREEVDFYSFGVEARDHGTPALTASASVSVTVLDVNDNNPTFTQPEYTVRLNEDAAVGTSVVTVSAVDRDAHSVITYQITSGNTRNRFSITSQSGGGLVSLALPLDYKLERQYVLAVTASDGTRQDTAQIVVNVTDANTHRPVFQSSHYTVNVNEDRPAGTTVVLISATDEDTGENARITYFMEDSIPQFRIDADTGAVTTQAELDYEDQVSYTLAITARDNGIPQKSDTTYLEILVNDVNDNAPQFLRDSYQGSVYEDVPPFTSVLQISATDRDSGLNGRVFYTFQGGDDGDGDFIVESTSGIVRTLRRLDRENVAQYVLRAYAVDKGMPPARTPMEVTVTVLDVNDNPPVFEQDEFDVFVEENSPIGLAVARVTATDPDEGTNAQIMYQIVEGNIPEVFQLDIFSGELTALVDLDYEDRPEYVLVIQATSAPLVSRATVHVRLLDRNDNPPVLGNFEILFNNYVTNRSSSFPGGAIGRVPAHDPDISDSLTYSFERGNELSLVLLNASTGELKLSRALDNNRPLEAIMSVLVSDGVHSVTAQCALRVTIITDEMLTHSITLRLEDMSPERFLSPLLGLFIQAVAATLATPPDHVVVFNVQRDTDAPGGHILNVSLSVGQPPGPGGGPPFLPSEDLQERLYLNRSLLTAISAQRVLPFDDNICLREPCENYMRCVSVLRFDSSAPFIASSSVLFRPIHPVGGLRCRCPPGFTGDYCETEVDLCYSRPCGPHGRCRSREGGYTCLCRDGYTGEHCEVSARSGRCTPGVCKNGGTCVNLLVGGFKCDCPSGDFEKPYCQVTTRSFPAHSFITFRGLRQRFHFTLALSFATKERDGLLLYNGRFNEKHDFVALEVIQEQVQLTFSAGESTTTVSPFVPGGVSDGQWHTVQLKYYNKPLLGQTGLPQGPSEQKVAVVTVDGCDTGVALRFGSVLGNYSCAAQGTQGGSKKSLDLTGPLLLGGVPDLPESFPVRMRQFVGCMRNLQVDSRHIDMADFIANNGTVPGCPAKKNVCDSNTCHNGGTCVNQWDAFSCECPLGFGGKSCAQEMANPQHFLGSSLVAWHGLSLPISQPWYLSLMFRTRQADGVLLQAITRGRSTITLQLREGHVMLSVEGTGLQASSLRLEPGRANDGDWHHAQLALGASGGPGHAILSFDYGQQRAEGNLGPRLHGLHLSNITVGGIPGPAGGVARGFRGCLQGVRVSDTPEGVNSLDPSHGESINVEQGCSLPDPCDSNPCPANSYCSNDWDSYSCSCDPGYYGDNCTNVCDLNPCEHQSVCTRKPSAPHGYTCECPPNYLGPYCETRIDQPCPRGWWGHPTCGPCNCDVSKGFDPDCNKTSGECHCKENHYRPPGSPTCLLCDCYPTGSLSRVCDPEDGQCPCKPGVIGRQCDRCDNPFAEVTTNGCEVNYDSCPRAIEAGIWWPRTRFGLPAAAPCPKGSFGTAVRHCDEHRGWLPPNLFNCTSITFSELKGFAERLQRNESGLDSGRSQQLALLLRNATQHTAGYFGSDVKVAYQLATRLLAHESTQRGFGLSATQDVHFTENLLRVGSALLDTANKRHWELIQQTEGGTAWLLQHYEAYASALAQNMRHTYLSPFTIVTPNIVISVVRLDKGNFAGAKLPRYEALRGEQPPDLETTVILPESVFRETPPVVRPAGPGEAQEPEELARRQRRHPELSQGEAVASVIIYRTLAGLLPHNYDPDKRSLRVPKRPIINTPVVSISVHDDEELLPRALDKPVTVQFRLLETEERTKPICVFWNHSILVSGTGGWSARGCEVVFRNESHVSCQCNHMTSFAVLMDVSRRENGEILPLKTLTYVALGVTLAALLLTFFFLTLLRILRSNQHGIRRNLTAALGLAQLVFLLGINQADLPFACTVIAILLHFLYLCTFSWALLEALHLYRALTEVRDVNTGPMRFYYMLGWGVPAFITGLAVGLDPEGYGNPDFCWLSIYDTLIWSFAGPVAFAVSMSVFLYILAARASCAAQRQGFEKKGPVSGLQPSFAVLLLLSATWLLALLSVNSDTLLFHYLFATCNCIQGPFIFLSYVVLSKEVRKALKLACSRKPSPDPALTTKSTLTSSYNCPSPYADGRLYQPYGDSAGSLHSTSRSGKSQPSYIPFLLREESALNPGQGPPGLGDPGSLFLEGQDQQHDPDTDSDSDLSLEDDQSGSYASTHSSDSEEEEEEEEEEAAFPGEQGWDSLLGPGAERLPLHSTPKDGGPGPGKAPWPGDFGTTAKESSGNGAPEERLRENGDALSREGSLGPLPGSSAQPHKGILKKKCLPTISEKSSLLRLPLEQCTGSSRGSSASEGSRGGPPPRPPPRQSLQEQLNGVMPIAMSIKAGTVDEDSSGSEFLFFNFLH

What was measured:
[1] = biological target: miniTurbo-V5-casein kinase 1γ1 (mT-V5-CK1γ1) (human) (UniProt Q9HCP0); experiment: proximity labelling; HEK293T cells stably expressing mT-V5-CK1γ, 50 mM biotin for 30 min, streptavidin affinity purification overnight, mass spectrometry, biological triplicate, scored with SAINT and CompPASS
[2] = biological target: miniTurbo-V5-casein kinase 1γ2 (mT-V5-CK1γ2) (human) (UniProt P78368); experiment: as above
[3] = biological target: miniTurbo-V5-casein kinase 1γ3 (mT-V5-CK1γ3) (human) (UniProt Q9Y6M4); experiment: as above
[4] = biological target: miniTurbo-V5-casein kinase 1γ1 (mT-V5-CK1γ1) (human) (UniProt Q9HCP0); experiment: proximity labelling; HEK293T cells stably expressing mT-V5-CK1γ, 50 mM biotin (Fig. 1F: biotin and WNT3A CM for 30 min), RIPA lysis, streptavidin affinity pulldown 1 h at 4 °C, Western blot of the biotinylated proteins
[5] = biological target: miniTurbo-V5-casein kinase 1γ2 (mT-V5-CK1γ2) (human) (UniProt P78368); experiment: as above
[6] = biological target: miniTurbo-V5-casein kinase 1γ3 (mT-V5-CK1γ3) (human) (UniProt Q9Y6M4); experiment: as above

Measured: binding

β-catenin (CTNNB1) (from UniProt P35222 1-781)
binds: [1] | [2] | [3] | [4] | [5] | [6]

zinc finger DHHC-type palmitoyltransferase 8 (ZDHHC8) (from UniProt Q9ULC8 1-765) (enzyme)
binds: [1] | [2] | [3]

DVL2 (from UniProt O14641 1-736)
binds: [4] | [5] | [6]

phosphoinositide-3-kinase regulatory subunit 3 (PIK3R3) (from UniProt Q92569 1-461)
binds: [1] | [2] | [3]

AXIN1 (from UniProt O15169 1-862)
binds: [4] | [5] | [6]

cadherin EGF LAG seven-pass G-type receptor 2 (CELSR2) (from UniProt Q9HCU4 32-2923)
binds: [4] | [5] | [6]

Results are given in words; binding and its absence hold for the method and conditions named. In cells and extracts the contact can be indirect. These calls come from enrichment with a bait or labelling near it, and not all partners need be listed.
